Measurements taken from PubChem BioAssay AID540275 (National Center for Advancing Translational Sciences (NCATS), 2011).
Where “and” joins values, the source holds several entries; their conditions need not be identical. Equal values may be shown once. Screen size: about 320,000 compounds; about 620 (0.19%) were called active. Inconclusive results, whose numbers are uncertain, are shown with a selection of clear calls. No stated cut-off is given here; in the data, active means activation above about 80%; inconclusive means between about 30% and that limit; inactive means weaker than that.

Protein sequences, listed by entry. Tags and fused reporters are not part of them.
UniProt Q8NER1, whole entry, looked up: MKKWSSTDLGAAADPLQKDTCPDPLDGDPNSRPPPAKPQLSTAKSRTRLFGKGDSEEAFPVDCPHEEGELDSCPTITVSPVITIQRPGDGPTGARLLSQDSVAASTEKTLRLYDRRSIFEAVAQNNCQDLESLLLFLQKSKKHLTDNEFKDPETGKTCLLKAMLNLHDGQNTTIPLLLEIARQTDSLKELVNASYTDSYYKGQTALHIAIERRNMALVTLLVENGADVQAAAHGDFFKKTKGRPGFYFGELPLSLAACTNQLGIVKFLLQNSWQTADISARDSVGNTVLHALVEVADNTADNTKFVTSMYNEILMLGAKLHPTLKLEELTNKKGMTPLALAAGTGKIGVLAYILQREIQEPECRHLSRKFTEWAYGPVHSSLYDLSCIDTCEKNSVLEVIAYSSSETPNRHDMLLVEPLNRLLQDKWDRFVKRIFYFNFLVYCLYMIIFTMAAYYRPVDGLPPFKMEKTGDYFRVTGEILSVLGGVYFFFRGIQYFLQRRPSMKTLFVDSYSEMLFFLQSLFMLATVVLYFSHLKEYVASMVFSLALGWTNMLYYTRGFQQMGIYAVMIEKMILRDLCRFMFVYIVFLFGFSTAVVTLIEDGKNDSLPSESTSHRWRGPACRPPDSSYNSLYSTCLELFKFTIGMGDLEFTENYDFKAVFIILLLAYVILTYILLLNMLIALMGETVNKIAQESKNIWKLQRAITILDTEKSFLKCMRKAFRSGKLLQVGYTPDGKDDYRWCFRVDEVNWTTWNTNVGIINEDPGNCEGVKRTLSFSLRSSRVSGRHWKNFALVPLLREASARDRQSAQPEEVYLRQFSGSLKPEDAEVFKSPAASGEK

Biological target: Transient receptor potential cation channel subfamily V member 1 (Homo sapiens) (UniProt Q8NER1)
Test: HTS Assay for Compounds that Act as Agonists of the Vanilloid Receptor 1; further: 0% is about no effect
Conditions: TRPV1-expressing cells, Fluo-8 calcium influx, agonist mode; at 8.33 µM, active compounds read high
Outline: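 TRPV1-expressing cells were cultured overnight at 35.5C and loaded with Fluo-8 calcium dye for 40 to 90 min at room temperature. After a 10 s baseline, compound was added and calcium influx was read kinetically for 3 min (ex 480/em 520 nm).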

SMILES | activation
O=C(c1ccccc1)c1ccc(N2CCOCC2)c(NC(=O)c2ccco2)c1 | inconclusive: 34.2%
Cc1cc(/C=N/O)c(C)n1-c1ccc(Br)cc1 | inactive: 4%
CC1CCC(C(C)C)C(OC(=O)Cn2c(-c3ccccc3)[n+](C)c3ccccc32)C1 (configuration not stated) | inactive: 1.22% and inactive: -1.47%
COc1cc(C(=O)Nc2cccc3ncccc23)cc(OC)c1OC | inactive: -2.34%
COc1cc(OC)cc(C(=O)N[C@H](C(=O)Nc2ccc3c(c2)OCO3)C(C)C)c1 | inconclusive: 31.3%
COc1ccc(-c2cc(C(=O)OCC(=O)NC3CC3)c3ccccc3n2)cc1 | inconclusive: 41.3%
COc1ccc([C@H]2CC(=O)C=C(C#CC(C)(C)C)C2)cc1 | inconclusive: 61.5%
Cc1ccc(Cn2c(=O)c3c(nc4n3CCCN4Cc3ccccc3)n(C)c2=O)cc1 | inconclusive: 33.3%
O=C(COC(=O)CCSc1ccc(Cl)cc1)NCc1ccccc1Cl | inconclusive: 36.3%
Cc1ccc(-c2nn(-c3ccccc3)cc2C=O)o1 | inconclusive: 31%
CC(C)NC(=O)c1ccc(-c2ccc(Cl)c(C(F)(F)F)c2)o1 | inconclusive: 38.2%
CCOC(=O)[C@H]1[C@H]2COc3ccc(Cl)cc3[C@@H]2N2C(=O)c3cc(F)ccc3NC(=O)[C@@]12C | inconclusive: 74.1%
CCOC(=O)c1ccc(NC(=O)c2nc[nH]c2C(=O)NCCCCCNC(=O)OC(C)(C)C)cc1 | inactive: 4.61%
COc1cc(/C=C(\C#N)C(=O)NCCc2ccccc2)cc(OC)c1O | inactive: 5.63%
CC1Cc2ccccc2N1S(=O)(=O)c1cccc(C(=O)NCc2ccccn2)c1 (configuration not stated) | inconclusive: 32.6%
COC(=O)Cc1cc(=O)[nH]c(/N=C(\N)Nc2ccc(C)cc2C)n1 | inactive: 1.49%
Cc1cc2c(=O)n(Cc3ccco3)c(SCC(=O)N3CCCc4ccccc43)nc2s1 | inconclusive: 32.3%
CCCCC1(CC(=O)OCC)C(=O)N(c2ccccc2)N(c2ccccc2)C1=O | inconclusive: 37.3%
Cc1ccc(C(=O)Nc2ncc3c(Cl)cccc3n2)cc1 | inconclusive: 69.4%

SMILES | activation
O=C(NC(=S)NCc1ccccc1)c1cccs1 | inconclusive: 38.9%
COc1ccc(NC(=S)Nc2ccc(C)c(S(=O)(=O)N3CCCCC3)c2)cc1 | inactive: 0.737%
O=C(c1ccccc1)c1cccc(NC(=O)c2ccco2)c1 | inconclusive: 39.5%
Cc1nc2ccc(S(=O)(=O)N(C)CC(=O)N3CCc4ccccc4C3)cc2s1 | inconclusive: 41.1%
CCc1cc2c(=O)[nH]c(-c3ccccn3)nc2s1 | inactive: -0.21%
Cn1nccc1C(=O)N/N=C/c1c(O)ccc2ccccc12 | inconclusive: 46.7%
Cc1ccc(NC(=O)CSc2nc3ccccc3nc2N2CCCC2)cc1 | inconclusive: 30%
CSCC(=O)Nc1nc(-c2ccc3c(c2)OCCO3)cs1 | inconclusive: 31.9%
O=C(CN1CCCC1=O)NC1C2CC3CC(C2)CC1C3 (configuration not stated) | inactive: -0.354%
O=C(CS(=O)(=O)Cc1ccccc1)Nc1ccc(Cl)cn1 | inconclusive: 30.9%
O=C(NCC1CCCO1)c1cc2ccccc2cc1O (configuration not stated) | inconclusive: 36.2%
Fc1ccc(CNC(=S)NC2CCCCC2)cc1 | inconclusive: 49.6%
CN1CCN(S(=O)(=O)c2ccc(NC(=O)c3csc4ccccc34)cc2)CC1 | inactive: -2.69%
COC(=O)Cn1c(=O)n(CCc2ccccc2)c(=O)c2c3c(sc21)CCCC3 | inconclusive: 55.7%
CCCCOC(=O)Oc1ccc2c(=O)c(Oc3cc(C)cc(C)c3)coc2c1 | inconclusive: 43.6%
Cc1ccc(-n2nc3c(N4CCC(C(=O)NCCc5cccs5)CC4)nnc(C)c3c2C)cc1 | inconclusive: 48%
CC(=O)c1ccc(N2CCN(C(=O)Nc3ccc(Cl)cc3)CC2)cc1 | active: 83.8%
N#Cc1nc(-c2ccccc2Cl)oc1NCC1CCCO1 (configuration not stated) | inconclusive: 43%
Cc1ccc(CONC(=O)c2ccc(C)cc2)cc1 | inconclusive: 51.4%

SMILES | activation
CC1CCN(CCn2c(=S)[nH]c3ccccc3c2=O)CC1 | inactive: 1.21%
COc1ccccc1NC(=S)NC(=O)/C=C/c1ccco1 | inactive: 18.9%
COc1ccc(OCCNC(=O)c2cc(C3CC3)nc3c2cnn3C(C)C)cc1 | inconclusive: 34.4%
CCCCN(CCCC)S(=O)(=O)c1ccc(C(=O)Nc2nnc(CSC)o2)cc1 | inactive: -1.75%
COc1ccc(N2CCN(C(=O)COc3cccc4ccccc34)CC2)cc1 | inconclusive: 35.6%
Cc1cccc(NC(=O)CN2C(=O)NC(C)(c3ccc4c(c3)OCO4)C2=O)c1 (configuration not stated) | inconclusive: 46.4%
O=C(Nc1cccc2cccnc12)c1ccccc1 | inactive: 7.34%
CCOC(=O)C1CCCN(CC(=O)Nc2c(C(=O)OC)[nH]c3ccc(Cl)cc23)C1 (configuration not stated) | inconclusive: 64.7%
Cc1nn(-c2ccccc2)c(N)c1N=Nc1cccc(S(=O)(=O)N2CCOCC2)c1 | inconclusive: 44.4%
COc1cc2c(cc1OC)CN(CC(=O)NC(=O)NC1CCCCC1)CC2 | inconclusive: 46.8%
O=C(NCCCn1ccnc1)c1ccc(N2CCCCC2)c([N+](=O)[O-])c1 | inconclusive: 42.3%
Cc1cccc(NC(=O)C2CCN(S(=O)(=O)c3c(C)noc3C)CC2)c1 | inconclusive: 51.2%
Cc1ccc(CNc2ccc3c(c2)ncn3C(C)C)cc1 | inactive: 5.02%
CC1CCc2c(sc(NC(=O)Cc3ccccc3)c2C(=O)Nc2ccc(Cl)cc2)C1 (configuration not stated) | inconclusive: 45.8%
O=C(CCc1ccccc1)NCC(=O)N/N=C/c1ccc(O)cc1O | inactive: -4.69%
CCCCCn1c(CCNC(=O)c2cccs2)nc2ccccc21 | inconclusive: 71.6%
COc1ccc(CN(C)CC(O)COC(c2ccc(OC)cc2)c2ccc(OC)cc2)cc1 (configuration not stated) | inactive: -0.71%
O=C(NCc1ccncc1)C(=O)NCC(c1ccco1)N1CCN(c2ccc(F)cc2)CC1 (configuration not stated) | inconclusive: 43.7%
O=C(Nc1ccn(Cc2ccccc2)n1)c1ccc(F)cc1 | inconclusive: 59.6%

Some values from the entries so far:
activation with Cc1cccc(NC(=O)C2CCN(S(=O)(=O)c3c(C)noc3C)CC2)c1 reads inconclusive: 51.2%
activation with COc1ccc(CN(C)CC(O)COC(c2ccc(OC)cc2)c2ccc(OC)cc2)cc1 (configuration not stated) reads inactive: -0.71%
activation with O=C(NCCCn1ccnc1)c1ccc(N2CCCCC2)c([N+](=O)[O-])c1 reads inconclusive: 42.3%
activation with CCCCN(CCCC)S(=O)(=O)c1ccc(C(=O)Nc2nnc(CSC)o2)cc1 reads inactive: -1.75%
